Reference: article PMC12238680
Results are given in words; binding and its absence hold for the method and conditions named. In cells and extracts the contact can be indirect. Some entries that bind do so weakly or less than the wild type.

Sequences of proteins named here, by UniProt entry; tags and fusion partners are left off.
UniProt O00425: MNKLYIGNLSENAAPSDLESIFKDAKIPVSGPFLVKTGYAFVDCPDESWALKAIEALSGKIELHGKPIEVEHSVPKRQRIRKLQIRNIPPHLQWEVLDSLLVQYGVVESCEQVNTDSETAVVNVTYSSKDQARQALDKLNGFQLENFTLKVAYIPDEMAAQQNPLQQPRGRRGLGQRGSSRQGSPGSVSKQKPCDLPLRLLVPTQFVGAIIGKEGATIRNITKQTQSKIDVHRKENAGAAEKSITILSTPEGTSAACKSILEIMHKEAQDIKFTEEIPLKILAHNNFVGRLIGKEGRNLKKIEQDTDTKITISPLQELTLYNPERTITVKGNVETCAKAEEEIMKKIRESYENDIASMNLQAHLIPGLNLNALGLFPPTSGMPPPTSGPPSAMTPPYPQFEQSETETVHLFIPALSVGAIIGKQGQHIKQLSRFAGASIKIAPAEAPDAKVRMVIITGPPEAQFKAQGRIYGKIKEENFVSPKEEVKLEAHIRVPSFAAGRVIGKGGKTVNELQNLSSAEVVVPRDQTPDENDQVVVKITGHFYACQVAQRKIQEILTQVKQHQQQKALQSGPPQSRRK
UniProt Q9NZI8: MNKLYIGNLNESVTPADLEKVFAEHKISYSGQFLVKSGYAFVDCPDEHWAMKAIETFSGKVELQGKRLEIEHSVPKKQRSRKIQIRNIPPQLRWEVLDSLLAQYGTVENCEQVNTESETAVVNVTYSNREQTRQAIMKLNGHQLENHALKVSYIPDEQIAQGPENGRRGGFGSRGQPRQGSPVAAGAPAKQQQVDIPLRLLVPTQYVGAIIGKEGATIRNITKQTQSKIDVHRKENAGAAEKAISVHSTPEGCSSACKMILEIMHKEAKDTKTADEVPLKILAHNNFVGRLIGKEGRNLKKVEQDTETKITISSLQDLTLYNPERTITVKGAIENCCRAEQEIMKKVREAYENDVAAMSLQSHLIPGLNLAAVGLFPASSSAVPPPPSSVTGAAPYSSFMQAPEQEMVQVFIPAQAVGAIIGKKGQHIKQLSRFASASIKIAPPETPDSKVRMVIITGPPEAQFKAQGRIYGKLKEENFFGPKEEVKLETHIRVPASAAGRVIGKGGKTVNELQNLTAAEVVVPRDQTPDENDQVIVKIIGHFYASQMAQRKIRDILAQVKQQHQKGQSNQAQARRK
UniProt Q9Y6M1: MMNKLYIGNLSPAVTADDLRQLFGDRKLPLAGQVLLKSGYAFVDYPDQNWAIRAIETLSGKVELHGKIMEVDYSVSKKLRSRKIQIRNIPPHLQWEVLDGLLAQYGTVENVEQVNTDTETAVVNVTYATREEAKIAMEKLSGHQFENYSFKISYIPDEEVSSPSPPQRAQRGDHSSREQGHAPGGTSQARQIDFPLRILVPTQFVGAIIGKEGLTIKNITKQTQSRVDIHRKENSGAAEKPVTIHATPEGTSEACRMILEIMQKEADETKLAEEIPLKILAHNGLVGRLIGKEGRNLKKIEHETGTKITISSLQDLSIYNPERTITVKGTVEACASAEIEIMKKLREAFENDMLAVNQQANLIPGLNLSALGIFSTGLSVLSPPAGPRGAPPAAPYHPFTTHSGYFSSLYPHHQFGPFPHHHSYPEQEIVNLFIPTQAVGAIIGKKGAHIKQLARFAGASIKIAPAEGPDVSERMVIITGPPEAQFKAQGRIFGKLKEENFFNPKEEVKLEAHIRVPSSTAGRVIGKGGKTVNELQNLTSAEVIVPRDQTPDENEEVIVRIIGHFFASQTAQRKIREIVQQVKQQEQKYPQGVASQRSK
UniProt Q16630: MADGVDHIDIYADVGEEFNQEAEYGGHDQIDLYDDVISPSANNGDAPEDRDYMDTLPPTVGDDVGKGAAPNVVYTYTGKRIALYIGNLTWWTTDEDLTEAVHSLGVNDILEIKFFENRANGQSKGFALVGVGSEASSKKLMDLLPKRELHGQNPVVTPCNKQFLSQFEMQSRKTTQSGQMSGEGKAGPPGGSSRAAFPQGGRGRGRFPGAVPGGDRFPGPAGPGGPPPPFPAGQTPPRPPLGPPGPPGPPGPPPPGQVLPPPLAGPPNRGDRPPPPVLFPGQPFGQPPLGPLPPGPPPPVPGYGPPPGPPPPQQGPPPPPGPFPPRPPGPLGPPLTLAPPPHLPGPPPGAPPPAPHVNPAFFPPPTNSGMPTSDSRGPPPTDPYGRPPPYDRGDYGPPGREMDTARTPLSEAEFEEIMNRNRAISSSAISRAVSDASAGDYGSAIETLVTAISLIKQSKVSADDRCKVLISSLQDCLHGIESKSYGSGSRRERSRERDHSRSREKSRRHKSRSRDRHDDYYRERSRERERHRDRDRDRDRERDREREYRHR

Columns and labels:
[1] = target: IGF2BP3 (human (endogenous in A2780, OVCAR3, SKOV3)) (UniProt O00425); assay: co-IP; endogenous proteins, A2780, OVCAR3 and SKOV3 lysates, with or without RNase A; IP of CPSF6 or of IGF2BP1, IGF2BP2, IGF2BP3
[2] = target: IGF2BP1 (human (endogenous in A2780, OVCAR3, SKOV3)) (UniProt Q9NZI8); assay: as above
[3] = target: IGF2BP2 (human (endogenous in A2780, OVCAR3, SKOV3)) (UniProt Q9Y6M1); assay: as above
[4] = target: FLAG-CPSF6 full length (FL), in 293T cells (human) (UniProt Q16630); assay: co-IP; 293T cells co-transfected with Myc- and FLAG-tagged plasmids; Myc tag and FLAG tag as baits; without or with RNase A
[5] = target: CPSF6 (human (endogenous in HeLa, A2780, OVCAR3, SKOV3)) (UniProt Q16630); assay: co-IP; endogenous proteins, A2780, OVCAR3 and SKOV3 lysates, with or without RNase A; IP of CPSF6 or of IGF2BP1, IGF2BP2, IGF2BP3
[6] = target: FLAG-tagged full-length (FL) recombinant human CPSF6, in OC cells (human) (UniProt Q16630); assay: co-IP; FLAG-tagged CPSF6 (FL or truncated) expressed in OC cells, IP of the CPSF6 protein, blots for endogenous proteins; RNase A not added
Myc-IGF2BP3 (human) = Myc-IGF2BP3 (human) (UniProt O00425); assay: co-IP; 293T cells co-transfected with Myc- and FLAG-tagged plasmids; Myc tag and FLAG tag as baits; without or with RNase A
Myc-IGF2BP1 (human) = Myc-IGF2BP1 (human) (UniProt Q9NZI8); assay: as above
Myc-IGF2BP2 (human) = Myc-IGF2BP2 (human) (UniProt Q9Y6M1); assay: as above

Row | binding [4] | binding [5] | binding [6] | Substance | further results
1 | – | – | – | CPSF6 (from UniProt Q16630 1-551) | binding [1]: binds; binding [2]: binds; binding [3]: binds
2 | binds | – | – | Myc-IGF2BP3 (from UniProt O00425 1-579) | –
3 | binds | – | – | Myc-IGF2BP2 (from UniProt Q9Y6M1 1-599) | –
4 | – | binds | binds | IGF2BP2 (from UniProt Q9Y6M1 1-599) | –
5 | – | – | – | FLAG-CPSF6 full length (FL), in 293T cells (from UniProt Q16630 1-551) | binding (Myc-IGF2BP3 (human)): binds; binding (Myc-IGF2BP1 (human)): binds; binding (Myc-IGF2BP2 (human)): binds
6 | – | binds | binds | IGF2BP3 (from UniProt O00425 1-579) | –
